{"source": "PubChem BioAssay AID248", "about": "(DTP/NCI, 2004)", "system": "L1210 leukemia ip in BDF1 mice, survival T/C", "test": "NCI In Vivo Anticancer Drug Screen. Data for tumor model L1210 Leukemia (intraperitoneal) in B6D2F1 (BDF1) mice", "settings": "T/C endpoint: mean survival time, higher T/C = longer survival", "key": {"[1]": {"settings": "dose: 200.0 mg/kg/injection, schedule: Q04DX003 (ip), vehicle: Klucel (hydroxypropylcellulose) (HPC)"}}, "note": "The list does not hold the whole screen: it is rich in T/C values a quarter to a half above the control, in often repeated tests (any T/C) and in doses without a T/C. Other doses and runs of a compound stand elsewhere. T/C gives the treated animals as a percentage of the vehicle group. Some entries give survivors of the animals treated and no T/C: the source holds a T/C of zero for them, seemingly a mark for toxic or unscored doses. Some survivor counts are full or nearly so, which does not show that the dose was tolerated: survival well below the control is almost never listed, so the zero probably covers shortened survival too. Counts of survivors are from the toxicity check (mostly the fifth day) where no day follows; animals may have died later. Schedules are NCI's codes, taken here to give the interval after Q, in days (D) or hours (H), and the number of doses after X. Some entries were tested several times; the results are listed from low to high. Some schedules carry Z or #; the key to these is not given. Where survival is the endpoint, this PubChem deposit counts one and a half times the control or more as active, and values a quarter to a half above the control carry no call in these data; other NCI protocols may use other cut-offs."}
{"smiles": "Nc1cc2c3c(cccc3c1Br)C(=O)OC2=O", "values": [{"measurement": "survivor count", "setting": "dose: 400.0 mg/kg/injection, schedule: Q04DX002 (ip), vehicle: Klucel (hydroxypropylcellulose) (HPC)", "value": "1 of 3"}]}
{"smiles": "NCCC1CCCCN1", "note": "(centres undefined)", "values": [{"measurement": "survivor count", "setting": "dose: 200.0 mg/kg/injection, schedule: Q04DX003 (ip), vehicle: acetone", "value": "0 of 6"}, {"measurement": "survivor count", "setting": "dose: 400.0 mg/kg/injection, schedule: Q04DX003 (ip), vehicle: acetone", "value": "1 of 6"}]}
{"smiles": "Cc1[nH]c(=O)[nH]c(=O)c1Br", "values": [{"measurement": "survivor count", "setting": "dose: 300.0 mg/kg/injection, schedule: Q01DX Z (ip), vehicle: methylcellulose (MC)", "value": "6 of 6"}]}
{"smiles": "NC1=NC(CCc2ccccc2)N(c2ccc(Cl)cc2)C(N)=N1", "note": "(centres undefined)", "values": [{"measurement": "survivor count", "setting": "dose: 200.0 mg/kg/injection, schedule: Q01DX001 (ip), vehicle: steroid suspending solution", "value": "1 of 6"}, {"measurement": "survivor count", "setting": "dose: 400.0 mg/kg/injection, schedule: Q01DX001 (ip), vehicle: steroid suspending solution", "value": "0 of 6"}]}
{"smiles": "CCC(=O)OC1(c2ccccc2)CCN(CCC(=O)c2ccccc2)CC1", "values": [{"measurement": "survivor count", "setting": "[1]", "value": "3 of 6"}, {"measurement": "survivor count", "setting": "dose: 400.0 mg/kg/injection, schedule: Q04DX003 (ip), vehicle: Klucel (hydroxypropylcellulose) (HPC)", "value": "0 of 6"}]}
{"smiles": "CCN=C(N)c1ccc(NC(=O)c2ccc(C(=O)Nc3ccc(C(N)=NCC)cc3)cc2)cc1", "values": [{"measurement": "survivor count", "setting": "dose: 4.0 mg/kg/injection, schedule: Q01DX Z (ip), vehicle: other", "value": "6 of 6"}, {"measurement": "survivor count", "setting": "dose: 8.0 mg/kg/injection, schedule: Q01DX Z (ip), vehicle: other", "value": "4 of 6"}, {"measurement": "survivor count", "setting": "dose: 16.0 mg/kg/injection, schedule: Q01DX Z (ip), vehicle: carboxymethylcellulose (CMC)", "value": "6 of 6"}, {"measurement": "survivor count", "setting": "dose: 31.0 mg/kg/injection, schedule: Q01DX Z (ip), vehicle: carboxymethylcellulose (CMC)", "value": "5 of 6"}, {"measurement": "survivor count", "setting": "dose: 62.0 mg/kg/injection, schedule: Q01DX Z (ip), vehicle: carboxymethylcellulose (CMC)", "value": "0 of 6 and 1 of 6"}, {"measurement": "survivor count", "setting": "dose: 125.0 mg/kg/injection, schedule: Q01DX Z (ip), vehicle: carboxymethylcellulose (CMC)", "value": "0 of 6"}, {"measurement": "survivor count", "setting": "dose: 250.0 mg/kg/injection, schedule: Q01DX Z (ip), vehicle: carboxymethylcellulose (CMC)", "value": "0 of 6"}, {"measurement": "survivor count", "setting": "dose: 500.0 mg/kg/injection, schedule: Q01DX Z (ip), vehicle: carboxymethylcellulose (CMC)", "value": "0 of 6"}]}
{"smiles": "Cc1cc(=O)n(CC(=O)O)c2ccccc12", "values": [{"measurement": "survivor count", "setting": "[1]", "value": "6 of 6"}]}
{"smiles": "c1ccc2c(c1)CCCc1cn[nH]c1-2", "values": [{"measurement": "survivor count", "setting": "dose: 400.0 mg/kg/injection, schedule: Q01DX001 (ip), vehicle: saline", "value": "0 of 4"}]}
{"smiles": "FC(F)(F)C(F)(F)C(F)(F)c1nc2nc(Cl)c(Cl)nc2[nH]1", "values": [{"measurement": "survivor count", "setting": "dose: 100.0 mg/kg/injection, schedule: Q01DX009 (ip), vehicle: saline with Tween-80", "value": "2 of 6 and 3 of 6"}, {"measurement": "survivor count", "setting": "dose: 200.0 mg/kg/injection, schedule: Q01DX009 (ip), vehicle: saline with Tween-80", "value": "0 of 6"}, {"measurement": "survivor count", "setting": "dose: 400.0 mg/kg/injection, schedule: Q04DX003 (ip), vehicle: saline with Tween-80", "value": "1 of 6"}]}
{"smiles": "COc1ccc(C(SCC(N)C(=O)O)(c2ccccc2)c2ccccc2)cc1", "note": "(centres undefined)", "values": [{"measurement": "T/C", "setting": "dose: 11.0 mg/kg/injection, schedule: Q01DX009 (ip), vehicle: saline", "value": "134 % of control"}, {"measurement": "survivor count", "setting": "dose: 40.0 mg/kg/injection, schedule: Q01DX009 (ip), vehicle: saline", "value": "4 of 6"}, {"measurement": "survivor count", "setting": "dose: 75.0 mg/kg/injection, schedule: Q01DX009 (ip), vehicle: saline", "value": "4 of 6"}, {"measurement": "survivor count", "setting": "dose: 150.0 mg/kg/injection, schedule: Q01DX009 (ip), vehicle: saline", "value": "0 of 6"}, {"measurement": "survivor count", "setting": "dose: 200.0 mg/kg/injection, schedule: Q01DX009 (ip), vehicle: saline", "value": "6 of 6"}, {"measurement": "survivor count", "setting": "dose: 300.0 mg/kg/injection, schedule: Q01DX009 (ip), vehicle: saline", "value": "0 of 6 and 5 of 6"}, {"measurement": "survivor count", "setting": "dose: 400.0 mg/kg/injection, schedule: Q01DX009 (ip), vehicle: saline", "value": "4 of 6"}]}
{"smiles": "CN(C)N=Nc1cc(Cl)cc(C(N)=O)c1Cl", "values": [{"measurement": "T/C", "setting": "dose: 266.0 mg/kg/injection, schedule: Q01DX009 (ip), vehicle: saline with Tween-80", "value": "133 % of control"}, {"measurement": "survivor count", "setting": "dose: 600.0 mg/kg/injection, schedule: Q01DX009 (ip), vehicle: saline with Tween-80", "value": "6 of 6"}]}
{"smiles": "COc1ccc(C=Nc2ccc(OC(C)=O)cc2)cc1", "values": [{"measurement": "T/C", "setting": "dose: 400.0 mg/kg/injection, schedule: Q01DX009 (ip), vehicle: other", "value": "132 % of control"}, {"measurement": "T/C", "setting": "dose: 600.0 mg/kg/injection, schedule: Q01DX009 (ip), vehicle: other", "value": "141 % of control"}]}
{"smiles": "CCOc1cc(C=Nc2cc(Br)c(O)c(Br)c2)ccc1N(CCCl)CCCl", "values": [{"measurement": "survivor count", "setting": "dose: 45.0 mg/kg/injection, schedule: Q01DX009 (ip), vehicle: carboxymethylcellulose (CMC)", "value": "6 of 6"}, {"measurement": "T/C", "setting": "dose: 66.0 mg/kg/injection, schedule: Q01DX001 (ip), vehicle: carboxymethylcellulose (CMC)", "value": "132 % of control"}]}
